Several values for one entry are separate records, joined by “and”; a condition that tells them apart may be missing. Identical values can stand only once. Screen size: about 580,000 compounds; about 6,100 (1.1%) were called active. Inconclusive results, whose numbers are uncertain, are shown with a selection of clear calls. The call rests on the fitted dose curve; in most records, active means well fitted inhibition curve with a large enough effect; inconclusive means small, poorly fitted or top-dose-only effect, or another doubt; inactive means no such curve, though single readings can be large or run the other way. A potency beside an inconclusive call is a rough fit, not a confirmed value.
Each molecule was assayed against Polyunsaturated fatty acid lipoxygenase ALOX12 (Homo sapiens) (UniProt P18054) (assay: Primary qHTS assay for inhibitors of human arachidonate 12S-lipoxygenase (ALOX12): Round 2). Settings: purified 12hLO, xylenol orange hydroperoxide absorbance; series mostly up to 108 µM.
Outline: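 Purified human 12hLO (150 nM final) in 25 mM Hepes, 0.01% Triton X-100, pH 7.0 was preincubated 15 min at room temperature with compound. Then 40 uM arachidonic acid was added, 30 min. Hydroperoxide was read by Fe-XO absorbance ratio 573/405 nm.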
Potency means the concentration at half of the fitted maximal effect.

Protein sequences, listed by entry. Tags and fused reporters are not part of them.
UniProt P18054, whole entry, looked up: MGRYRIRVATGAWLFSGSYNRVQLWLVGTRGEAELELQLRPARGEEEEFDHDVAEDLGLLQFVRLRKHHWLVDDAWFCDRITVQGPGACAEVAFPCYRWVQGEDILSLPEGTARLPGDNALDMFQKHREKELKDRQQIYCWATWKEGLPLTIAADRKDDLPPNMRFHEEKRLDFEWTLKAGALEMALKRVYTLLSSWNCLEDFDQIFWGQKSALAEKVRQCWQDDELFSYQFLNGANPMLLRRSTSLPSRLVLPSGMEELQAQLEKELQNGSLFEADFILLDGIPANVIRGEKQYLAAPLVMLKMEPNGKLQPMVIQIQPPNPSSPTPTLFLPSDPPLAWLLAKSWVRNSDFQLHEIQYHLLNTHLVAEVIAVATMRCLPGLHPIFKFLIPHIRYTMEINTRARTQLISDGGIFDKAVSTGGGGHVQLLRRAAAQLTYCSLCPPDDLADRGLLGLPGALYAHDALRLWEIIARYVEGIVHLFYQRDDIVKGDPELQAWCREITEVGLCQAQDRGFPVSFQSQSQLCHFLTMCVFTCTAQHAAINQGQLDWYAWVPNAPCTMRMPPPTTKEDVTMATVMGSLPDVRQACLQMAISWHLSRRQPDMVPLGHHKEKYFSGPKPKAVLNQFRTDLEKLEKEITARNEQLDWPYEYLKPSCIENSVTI

Row | SMILES | Potency
1 | Cc1cc(C(=O)OCC(=O)N2C(C)CCCC2C)c(C)o1 (centres undefined) | inconclusive: 44.7 µM [inhibitor, partial curve, poor fit]
2 | O=C(CCS(=O)(=O)c1ccc(Br)cc1)Nc1ccccn1 | inactive
3 | c1ccc(N2CCN(Cc3ccc4c(c3)OCO4)CC2)nc1 | inconclusive: 3.55 µM [inhibitor, full curve, poor fit]
4 | O=C(C1=NN[C@@H]2C(=O)N(Cc3ccccc3)C(=O)[C@H]12)c1ccc(F)cc1 | inconclusive: 126 µM [inhibitor, single point]
5 | CCOc1ccc(-c2ccc(C(=O)O)s2)cc1 | inactive
6 | CC(=O)N1c2ccc(S(=O)(=O)NCC3CCC(C(=O)Nc4cccc(C)c4)CC3)cc2CC1C (centres undefined) | inactive
7 | CCCC(=O)N1CCN(c2nnc(-c3ccc(C)cc3)c3ccccc23)CC1 | inconclusive: 100 µM [inhibitor, single point]
8 | CCc1ccc(N(C(=O)c2snc(C(N)=O)c2N)C(C(=O)NC2CCCC2)c2ccco2)cc1 (centres undefined) | inactive
9 | CN1CCN(C2CN(Cc3cn(Cc4cccc(Cl)c4)nn3)S(=O)(=O)C2)CC1 (centres undefined) | inconclusive: 28.2 µM [inhibitor, partial curve]
10 | C=CC[C@@H](Cc1ccc(F)cc1)C(=O)OC[C@H]1CCCN1C(=O)[C@@H](CC=C)CC(=O)N[C@@H](CO)Cc1ccccc1 | inactive
11 | CCCN(CCC)Cc1cc(=O)oc2cc(C)c(C)cc12 | inconclusive: 39.8 µM [inhibitor, partial curve, poor fit]
12 | Cc1ccc(C)c(C(C)NC(=O)c2ccc(Br)o2)c1 (centres undefined) | inactive
13 | NC(=O)[C@@H]1CC2(CC(c3cccc(NC(=O)[C@H]4CCC(=O)N4)c3)=NO2)CN1C(=O)COc1ccc(Cl)cc1 (some centres undefined) | inconclusive: 3.55 µM [inhibitor, full curve, poor fit]
14 | Cc1cc(Br)ccc1NC(=O)c1ccccc1-c1ccccc1 | inactive
15 | CCNC(=O)c1n[nH]c2c1CN(C(=O)c1cc(F)cc(F)c1)CC2 | inactive
16 | O=C1CSC(=S)N1N=Cc1cccc(OCc2ccccc2)c1 | inactive
17 | O=C(O)c1cc(S(=O)(=O)N2CC3CC3C2C(=O)O)c(Cl)cc1Cl (centres undefined) | inconclusive: 35.5 µM [inhibitor, partial curve, poor fit]
18 | COC(=O)C(=N/Nc1ccccc1C(=O)OC)/C(C)=N/O | inconclusive: 70.8 µM [inhibitor, partial curve, poor fit]
19 | COc1cc(-c2cc(-c3ccc(O)cc3)nc(N)c2C#N)ccc1O | inconclusive: 44.7 µM [inhibitor, partial curve, poor fit]
20 | Cc1cccc(N2CCN(C(=O)c3cc4ccc(F)cc4nc3C)CC2)c1C | inactive
21 | O=C1N(c2ccccc2)C[C@@H]2C[C@@H](c3cc4ccccc4o3)N3CCC[C@@]123 | inconclusive: 50.1 µM [inhibitor, partial curve, poor fit]
22 | c1ccc(Nc2nc(-c3ccccc3)nc3ccccc23)cc1 | inconclusive: 44.7 µM [inhibitor, partial curve, poor fit]
23 | Cc1ccc(C)c(NS(=O)(=O)c2cc(C(=O)NCCC3=CCCCC3)ccc2C)c1 | inactive

Row | SMILES | Potency
24 | COc1ccc(CC(=O)N2CCC(c3n[nH]c(=O)n3-c3ccccc3)CC2)cc1Cl | inconclusive: 89.1 µM [inhibitor, single point]
25 | COc1ccc(C(=O)Nc2nc(-c3nnn(-c4cc(OC)ccc4OC)c3C)ns2)cc1 | inactive
26 | COc1ccc(C#Cc2ccc3c(c2)c(=O)c2ccccc2n3C)cc1 | inconclusive: 50.1 µM [inhibitor, partial curve, poor fit]
27 | O=C(CSc1ccc2c(c1)OCCCO2)Nc1ccc2ccccc2c1 | inconclusive: 44.7 µM [inhibitor, single point]
28 | Cc1ccc(C=NNC(=O)c2cc(-c3cccnc3)nc3ccccc23)o1 | active: 10 µM
29 | O=C(/C=C/c1cccc(F)c1)OCC(=O)N1CCCc2ccccc21 | inconclusive: 6.31 µM [inhibitor, partial curve, poor fit]
30 | O=C(O)CC12CC3CC(Br)(C1)CC(CC(=O)O)(C3)C2 | inactive
31 | O=C(N/N=C/c1cccc(OCc2ccccc2)c1)c1cccs1 | inactive
32 | COC(=O)c1ccc2c(=O)n(NC(C)=O)c(=S)[nH]c2c1 | inconclusive: 0.794 µM [inhibitor, full curve, poor fit]
33 | O=C(O)C(O)c1ccccc1 (centres undefined) | inactive
34 | Cc1c(C(=O)c2cccc(C(F)(F)F)c2)c2ccccn2c1CCC#N | inconclusive: 28.2 µM [inhibitor, single point]
35 | Cn1c(=O)c2c(nc(Br)n2CC(=O)c2cccs2)n(C)c1=O | inactive
36 | Cc1ccc(NC(=O)Cn2nc3ccc(S(=O)(=O)C(C)(C)C)nn3c2=O)cc1C | inconclusive: 50.1 µM [inhibitor, partial curve, poor fit]
37 | COc1ccc(NC(=O)Nc2nnc(CC(=O)Nc3ccccc3)s2)cc1 | inconclusive: 2.82 µM [inhibitor, full curve, poor fit]
38 | COc1ccc(-c2nc3ccccc3c(=O)n2-c2c(C)n(C)n(-c3ccccc3)c2=O)cc1 | inconclusive: 112 µM [inhibitor, partial curve, poor fit]
39 | CN1CC(=O)N(C2CCNCC2)Cc2c(NC3CCC3)ncnc21 | inconclusive: 11.2 µM [inhibitor, full curve]
40 | CN(C)C(=O)COC(=O)c1csc(NCc2ccccc2)n1 | inconclusive: 100 µM [inhibitor, single point]
41 | COCCOC(=O)c1c(C)n(C)c2ccc(OC(=O)c3ccco3)cc12 | inactive
42 | FC(F)(F)Sc1ccc(N=Cc2c3ccccc3cc3ccccc23)cc1 | inconclusive: 25.1 µM [inhibitor, partial curve, poor fit]
43 | Cc1ccc(NC(=O)c2cccc(S(=O)(=O)N3CCN(c4ccc(F)cc4)CC3)c2)nc1 | inactive
44 | COCC(=O)NC[C@H]1O[C@@H](CO)[C@@H](O)[C@H]1N1CCN(c2ccccn2)CC1 | inconclusive: 8.91 µM [inhibitor, partial curve]
45 | CC(C)CCNC(=O)Cn1cc(S(=O)(=O)Cc2ccc(F)cc2)c2ccccc21 | inconclusive: 56.2 µM [inhibitor, partial curve, poor fit]
46 | CC(=O)NC(c1ccc(C)cc1)c1cc(Cl)c2cccnc2c1O (centres undefined) | inconclusive: 2.82 µM [inhibitor, partial curve, poor fit]

Row | SMILES | Potency
47 | CC(=O)c1ccc(NC(=S)NCCCn2ccnc2)cc1 | inconclusive: 100 µM [inhibitor, single point]
48 | COc1cc(-c2nc(-c3c(C)noc3C)cc3[nH]c(C)cc23)ccn1 | inconclusive: 79.4 µM [inhibitor, partial curve, poor fit]
49 | S=C(NN=C1CCCCCCCCCCC1)NC1CCCCC1 | inconclusive: 44.7 µM [inhibitor, partial curve, poor fit]
50 | O=C(OCc1cccc(COC(=O)c2ccc(CO)cc2)c1)c1ccc(CO)cc1 | inactive
51 | Cc1c(NC(=S)N/N=C/C=C/c2ccc([N+](=O)[O-])cc2)c(=O)n(-c2ccccc2)n1C | inconclusive: 50.1 µM [inhibitor, partial curve, poor fit]
52 | CC(OC(=O)Cc1c(F)cccc1Cl)C(=O)NC1CCCCC1C (centres undefined) | inconclusive: 79.4 µM [inhibitor, partial curve, poor fit]
53 | O=C(NC12CC3CC(CC(C3)C1)C2)c1ccc(Cl)c([N+](=O)[O-])c1 | inactive
54 | CCOC(=O)c1cc(OC(=O)c2cccc(C)c2)n(-c2ccccc2)n1 | inconclusive: 17.8 µM [inhibitor, full curve, poor fit]
55 | Cc1ccc(-c2cc(-c3ccc(Cl)cc3)c(C#N)c(N)n2)o1 | inconclusive: 0.447 µM [inhibitor, full curve, poor fit]
56 | CCCOc1ccc(F)cc1-c1cc(C(=O)NCc2ccccc2OC)[nH]n1 | inactive
57 | COc1ccc(/C=C/C2=CC(C)(C)NC(=S)N2)c(OC)c1 | active: 39.8 µM
58 | O=C(NC1CCCCC1)c1cccc(NC(=O)C2CC2)c1 | inactive
59 | COc1ccc(NS(=O)(=O)c2cccc(C(=O)NNC(=O)c3cncc(Br)c3)c2)cc1 | inactive
60 | CC(=O)NCCc1nc2ccccc2n1CCCCOc1ccc(Cl)cc1 | inactive
61 | COc1cc(NC(=O)C(=O)NC(C)CCc2ccccc2)ccc1N1CCCCS1(=O)=O (centres undefined) | inconclusive: 141 µM [inhibitor, single point]
62 | COC(=O)Nc1[nH]ncc1[N+](=O)[O-] | active: 35.5 µM
63 | CC(=O)c1cccc(NC(=O)c2oc(C)nc2C)c1 | inconclusive: 56.2 µM [inhibitor, partial curve, poor fit]
64 | CN(C)c1cccc(C(=O)OCC(=O)N2c3ccccc3Sc3ccccc32)c1 | inconclusive: 112 µM [inhibitor, single point]
65 | O=C(Cc1scnc1-c1cccs1)NCc1ccccc1F | inconclusive: 31.6 µM [inhibitor, partial curve, poor fit]
66 | CN(C)c1ccc(NC(=O)c2ccc[n+]([O-])c2)cn1 | inactive
67 | COc1ccc(-c2cc(C(=O)NCCCOC(C)C)c3cc(Br)ccc3n2)cc1 | inconclusive: 6.31 µM [inhibitor, full curve]
68 | O=C1c2ccccc2C(=O)c2c1ccc(O)c2O | active: 2.28 µM and inconclusive: 562 nM [inhibitor, full curve, poor fit]
69 | c1cnc2ccc3ncccc3c2c1 | inconclusive: 126 µM [inhibitor, single point]

Source: PubChem BioAssay AID1671190 (National Center for Advancing Translational Sciences (NCATS), 2021)
